Data: publication PMC7797050
Results are given in words; binding and its absence hold for the method and conditions named. In cells and extracts the contact can be indirect. Some entries that bind do so weakly or less than the wild type. Values belong to the molecule of their own block, whether it stands above or below them.

Amino acid sequences for entries named in this document (tags omitted).
UniProt Q86U44: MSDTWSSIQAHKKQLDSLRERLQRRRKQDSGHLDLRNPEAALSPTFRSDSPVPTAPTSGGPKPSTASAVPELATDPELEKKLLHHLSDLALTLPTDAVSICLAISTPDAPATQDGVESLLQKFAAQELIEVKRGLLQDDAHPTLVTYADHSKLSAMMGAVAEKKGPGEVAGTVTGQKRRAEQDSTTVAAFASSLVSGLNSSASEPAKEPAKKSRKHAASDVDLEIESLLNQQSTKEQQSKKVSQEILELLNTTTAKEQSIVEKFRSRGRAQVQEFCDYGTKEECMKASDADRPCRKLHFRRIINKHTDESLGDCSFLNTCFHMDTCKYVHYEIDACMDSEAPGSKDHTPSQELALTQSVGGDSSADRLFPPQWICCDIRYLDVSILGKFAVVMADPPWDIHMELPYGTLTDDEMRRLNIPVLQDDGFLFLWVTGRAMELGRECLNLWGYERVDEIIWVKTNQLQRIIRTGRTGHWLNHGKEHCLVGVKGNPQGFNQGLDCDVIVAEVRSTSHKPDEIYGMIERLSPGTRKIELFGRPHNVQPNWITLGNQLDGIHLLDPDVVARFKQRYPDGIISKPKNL
UniProt O94916: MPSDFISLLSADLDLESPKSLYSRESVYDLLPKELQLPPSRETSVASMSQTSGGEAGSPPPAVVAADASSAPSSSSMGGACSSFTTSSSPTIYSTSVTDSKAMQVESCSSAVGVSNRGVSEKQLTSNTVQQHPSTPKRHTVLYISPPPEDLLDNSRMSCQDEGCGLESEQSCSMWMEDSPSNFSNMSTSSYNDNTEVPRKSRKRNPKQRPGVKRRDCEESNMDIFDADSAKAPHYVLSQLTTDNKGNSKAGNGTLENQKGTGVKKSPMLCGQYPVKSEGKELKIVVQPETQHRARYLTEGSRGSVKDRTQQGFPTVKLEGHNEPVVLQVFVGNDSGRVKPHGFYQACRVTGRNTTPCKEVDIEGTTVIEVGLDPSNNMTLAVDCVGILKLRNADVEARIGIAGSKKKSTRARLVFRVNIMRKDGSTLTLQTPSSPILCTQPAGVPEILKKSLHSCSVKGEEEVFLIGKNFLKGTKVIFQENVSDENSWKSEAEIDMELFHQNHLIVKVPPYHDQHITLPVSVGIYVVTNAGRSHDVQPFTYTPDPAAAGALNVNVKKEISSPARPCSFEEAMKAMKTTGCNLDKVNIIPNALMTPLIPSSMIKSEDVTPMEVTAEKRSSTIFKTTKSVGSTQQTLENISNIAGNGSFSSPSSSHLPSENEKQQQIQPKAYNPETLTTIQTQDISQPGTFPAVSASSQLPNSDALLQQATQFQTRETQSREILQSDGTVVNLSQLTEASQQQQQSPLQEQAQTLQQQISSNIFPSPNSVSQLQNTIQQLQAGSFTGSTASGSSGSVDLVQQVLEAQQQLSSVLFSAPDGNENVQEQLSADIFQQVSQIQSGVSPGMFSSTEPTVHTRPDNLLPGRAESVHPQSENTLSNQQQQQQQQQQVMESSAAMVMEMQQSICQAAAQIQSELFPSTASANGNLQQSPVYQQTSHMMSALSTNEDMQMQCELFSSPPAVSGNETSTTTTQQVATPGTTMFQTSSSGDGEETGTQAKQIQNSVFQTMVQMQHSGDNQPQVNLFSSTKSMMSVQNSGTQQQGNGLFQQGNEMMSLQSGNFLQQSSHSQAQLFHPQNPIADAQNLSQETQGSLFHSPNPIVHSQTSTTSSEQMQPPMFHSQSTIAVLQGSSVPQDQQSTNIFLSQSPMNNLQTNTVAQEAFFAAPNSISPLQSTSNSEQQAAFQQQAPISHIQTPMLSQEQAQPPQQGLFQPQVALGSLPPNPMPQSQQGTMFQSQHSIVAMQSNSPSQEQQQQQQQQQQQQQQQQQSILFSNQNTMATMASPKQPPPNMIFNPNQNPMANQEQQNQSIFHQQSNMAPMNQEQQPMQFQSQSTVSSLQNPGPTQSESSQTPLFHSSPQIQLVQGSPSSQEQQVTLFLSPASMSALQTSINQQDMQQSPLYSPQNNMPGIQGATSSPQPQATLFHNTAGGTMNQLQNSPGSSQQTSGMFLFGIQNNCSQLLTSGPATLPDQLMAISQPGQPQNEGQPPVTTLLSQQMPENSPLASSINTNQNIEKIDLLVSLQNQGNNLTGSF

Tests used:
Flag-METTL3 (WT) (human) = Flag-METTL3 (WT) (human) (UniProt Q86U44); assay: co-IP; cells co-transfected with Flag-METTL3 and Myc-tagged TonEBP (WT), ΔRHD or Yc1; lysates after 24 h immunoprecipitated with anti-FLAG antibody
[1] = molecular target: methyltransferase-like 3 (METTL3) (human (endogenous in HEK293T)) (UniProt Q86U44); assay: co-IP; endogenous proteins; HEK293T cell lysates (RIPA buffer) immunoprecipitated with anti-TonEBP antibody (control normal serum) or anti-METTL3 IgG (control normal rabbit IgG), Protein A/G Sepharose, immunoblot
[2] = molecular target: Tonicity-responsive enhancer binding protein (TonEBP) (human (endogenous in HEK293T)) (UniProt O94916); assay: as above
[3] = molecular target: TonEBP (co-immunoprecipitation with RNaseH1) (UniProt O94916); assay: co-IP; RNaseH1 co-immunoprecipitated with TonEBP (Supplementary Figure S12); details not shown

binding (Flag-METTL3 (WT) (human)): binds
Molecule: Myc-tagged TonEBP (WT) (from UniProt O94916 1-1531)

binding [1]: binds
Molecule: Tonicity-responsive enhancer binding protein (TonEBP) (from UniProt O94916 1-1531)

binding [2]: binds
Molecule: methyltransferase-like 3 (METTL3) (from UniProt Q86U44 1-580) (enzyme)

binding [3]: binds
B1: RNaseH1 (enzyme, UniProt O60930 1-286)
chain: MSWLLFLAHRVALAALPCRRGSRGFGMFYAVRRGRKTGVFLTWNECRAQVDRFPAARFKKFATEDEAWAFVRKSASPEVSEGHENQHGQESEAKASKRLREPLDGDGHESAEPYAKHMKPSVEPAPPVSRDTFSYMGDFVVVYTDGCCSSNGRRRPRAGIGVYWGPGHPLNVGIRLPGRQTNQRAEIHAACKAIEQAKTQNINKLVLYTDSMFTINGITNWVQGWKKNGWKTSAGKEVINKEDFVALERLTQGMDIQWMHVPGHSGFIGNEEADRLAREGAKQSED
